Literature values as cited in patent US20020039601A1, “Cancer cell growth suppressor and cell differentiation inducer and method for manufacturing the same” (priority 2000, published 2002).
Some results were stated once for a whole list of compounds, not compound by compound. At least one structure is not confirmed: it was looked up by name or label, or the drawing left a doubt.

System: HL-60 cells
Settings: HL60 cells, respective maximum concentration; cited from earlier work

SMILES	differentiation at maximum concentration
C[S+](C)[O-] [DMSO]	≥ 90%
CC1=C(/C=C/C(C)=C/C=C/C(C)=C/C(=O)O)C(C)(C)CCC1 [ATRA, all-trans retinoic acid]	≥ 90%
